Results are given in words; binding and its absence hold for the method and conditions named. In cells and extracts the contact can be indirect. Some entries that bind do so weakly or less than the wild type. Sequences can lack the tags named with a protein.
Molecular target: T1, Myc-CASP4 C258A (human caspase-4, catalytic cysteine mutant) (human) (UniProt P49662)
T1 sequence: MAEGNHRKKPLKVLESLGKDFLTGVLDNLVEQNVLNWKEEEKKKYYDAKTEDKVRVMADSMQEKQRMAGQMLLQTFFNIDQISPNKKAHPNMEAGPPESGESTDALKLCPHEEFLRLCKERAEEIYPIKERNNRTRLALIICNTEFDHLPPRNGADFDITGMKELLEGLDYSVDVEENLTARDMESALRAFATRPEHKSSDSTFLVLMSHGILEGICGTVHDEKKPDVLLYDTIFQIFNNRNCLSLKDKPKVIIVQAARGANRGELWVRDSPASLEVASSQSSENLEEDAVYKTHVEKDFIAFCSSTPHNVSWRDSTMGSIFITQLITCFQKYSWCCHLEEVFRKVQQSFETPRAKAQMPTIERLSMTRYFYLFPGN
Test: co-IP; Flag-GSDMD L192D co-immunoprecipitated by Myc-CASP4 C258A in wild-type and GBP^Δ1q22.2 mutant HeLa cells

binding: binds
B1: Flag-GSDMD L192D (human Gasdermin D) (protein, UniProt P57764 1-484)
chain: MGSAFERVVRRVVQELDHGGEFIPVTSLQSSTGFQPYCLVVRKPSSSWFWKPRYKCVNLSIKDILEPDAAEPDVQRGRSFHFYDAMDGQIQGSVELAAPGQAKIAGGAAVSDSSSTSMNVYSLSVDPNTWQTLLHERHLRQPEHKVLQQLRSRGDNVYVVTEVLQTQKEVEVTRTHKREGSGRFSLPGATCDQGEGQGHLSQKKTVTIPSGSTLAFRVAQLVIDSDLDVLLFPDKKQRTFQPPATGHKRSTSEGAWPQLPSGLSMMRCLHNFLTDGVPAEGAFTEDFQGLRAEVETISKELELLDRELCQLLLEGLEGVLRDQLALRALEEALEQGQSLGPVEPLDGPAGAVLECLVLSSGMLVPELAIPVVYLLGALTMLSETQHKLLAEALESQTLLGPLELVGSLLEQSAPWQERSTMSLPPGLLGNSWGEGAPAWVLLDECGLELGEDTPHVCWEPQAQGRMCALYASLALLSGLSQEPH
